Test results reported in the supplement of paper PMC8256030.
“And” between values parts separate entries of the source, which are not always exact repeats. Identical values can stand only once. The list shows a part of the results. Single values are uncertain here, since repeats match poorly.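 HEK293T cells were given each compound shortly before transfection with a reporter in which red mCherry is followed by the SARS-CoV-2 frameshift element and then GFP in the −1 frame, so GFP appears only after frameshifting.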

Legend:
[1] = tested on: SARS-CoV-2 -1 PRF reporter mCherry-FSE-GFP(-1); assay: mCherry (red) intensity as percent of control; higher = higher upstream reporter expression; conditions: 10 µM; 24 h; HEK293T
[2] = tested on: SARS-CoV-2 -1 PRF reporter mCherry-FSE-GFP(-1); assay: percent effect, decrease of GFP/mCherry ratio (-1 PRF reporter) relative to controls; higher = stronger frameshift inhibition; conditions: 10 µM; 24 h; HEK293T

SMILES	mCherry [1]	percent effect [2]
COC(=O)[C@H](Cc1ccccc1)NC(=O)[C@@H](N)CC(=O)O [aspartame]	104%	2.17%
COc1ccc(Cc2cnc(N)nc2N)cc1OC [diaveridine]	80.4%	-1.66%
Nc1nc2ccc(OC(F)(F)F)cc2s1 [riluzole]	97.6%	2.1%
c1ccc2c(CC3=NCCN3)cccc2c1 [naphazoline]	92.3% and 78.4%	0.706% and -8.67%
CCC1(C)CC(=O)NC1=O (centres undefined) [ethosuximide]	92%	-4.65%
Cc1cc(Cl)c(S(N)(=O)=O)cc1S(N)(=O)=O [disulfamide]	111%	-2.18%
O=C(CCCCCCCC(=O)NCCO)NCCO [adelmidrol]	75.3%	-7.66%
COc1cc(Cc2cnc(N)nc2N)cc(OC)c1Br [brodimoprim]	52.6%	0.396%
N[C@@H](Cc1c[nH]cn1)C(=O)O [histidine]	99.1%	4.41%
CO[C@@H]1[C@@H](OC(N)=O)[C@@H](O)[C@H](Oc2ccc3c(O)c(NC(=O)c4ccc(O)c(CC=C(C)C)c4)c(=O)oc3c2C)OC1(C)C [novobiocin]	81.3%	-7.79%
CC(C)[C@H]1CC[C@H](C(=O)N[C@H](Cc2ccccc2)C(=O)O)CC1 [nateglinide]	99.1%	2.33%
CC(=O)OCC(=O)[C@@]1(O)CC[C@H]2[C@@H]3CCC4=CC(=O)CC[C@]4(C)C3=CC[C@@]21C [anecortave]	74.7%	-2.97%
Oc1c(I)cc(I)c2cccnc12	106%	-0.98%
C=CCn1c(N)cc(=O)n(CC)c1=O [Mictine]	96.8%	-1.74%
Clc1ccc(CSC(Cn2ccnc2)c2ccc(Cl)cc2Cl)cc1 (centres undefined) [sulconazole]	109%	-1.11%
CCCCC(CC)CN=C(N)NC(N)=NCCCCCCN=C(N)NC(N)=NCC(CC)CCCC (centres undefined)	110%	-5.21%

SMILES	mCherry [1]	percent effect [2]
CCCc1nc(C)c2c(=O)nc(-c3cc(S(=O)(=O)N4CCN(CC)CC4)ccc3OCC)[nH]n12	98.6%	-5.15%
NC(CCC(=O)O)C(=O)O (centres undefined)	99.1%	-4.72%
COC[C@H]1O[C@@H](OC2OC[C@@H]3O[C@]4(O[C@H]3[C@H]2OC(=O)C(C)C)O[C@H](C)[C@@](O)(C(C)=O)[C@@H]2OCO[C@H]24)[C@@H](OC)[C@@H](O)[C@@H]1O[C@@H]1O[C@H](C)[C@H](OC)[C@H](O[C@H]2C[C@@]3(C)OC4(C[C@@H](O)[C@H](O[C@H]5C[C@@H](O)[C@H](OC(=O)c6c(C)c(Cl)c(O)c(Cl)c6OC)[C@@H](C)O5)[C@@H](C)O4)O[C@@H]3[C@@H](C)O2)[C@H]1O (some centres undefined) [avilamycin]	128%	-0.351%
O=C1OC(CN2CCOCC2)CN1/N=C/c1ccc([N+](=O)[O-])o1 (centres undefined)	82.8%	2.3%
CC1(C)S[C@@H]2[C@H](NC(=O)Cc3ccccc3)C(=O)N2[C@H]1C(=O)O	98.1%	-1.03%
C[C@H]1C[C@H]2[C@@H]3CCC4=CC(=O)C=C[C@]4(C)[C@@]3(Cl)[C@@H](O)C[C@]2(C)[C@@]1(O)C(=O)CO [beclometasone]	105%	-1.41%
CN1C(C)(C)CCCC1(C)C	89.7%	-0.308%
C[N+]1(C)CCC(=C(c2ccccc2)c2ccccc2)CC1 [diphemanil metilsulfate]	110%	0.435%
Cc1cc(CC(C)CC(C)(C)C)n(O)c(=O)c1 (centres undefined) [piroctone]	97.4%	-3.27%
Nc1nc(/C(=C/CC(=O)O)C(=O)N[C@@H]2C(=O)N3C(C(=O)O)=CCS[C@H]23)cs1	112%	0.303%
C=CC[N+]1([C@H]2C[C@H]3[C@@H]4CC[C@H]5C[C@H](O)[C@@H](N6CCOCC6)C[C@]5(C)[C@H]4CC[C@]3(C)[C@H]2OC(C)=O)CCCC1 [rocuronium bromide]	91%	-0.0577%
CCOC(=O)[C@H](CCc1ccccc1)N[C@H]1CCc2ccccc2N(CC(=O)O)C1=O	110%	-9.26%
Cc1c(-c2ccc(O)cc2)n(Cc2ccc(OCCN3CCCCCC3)cc2)c2ccc(O)cc12 [bazedoxifene]	103%	0.726%
CC(C(=O)O)c1ccc2c(c1)CC(C(C)C)C2 (centres undefined) [isoprofen]	82.9%	-5.14%
COc1ccc2c(c1)C(=O)N(CCc1ccc(S(=O)(=O)NC(=O)NC3CCCCC3)cc1)C(=O)C2(C)C [gliquidone]	89.9%	-5.91%
CCN1CCC[C@H]1CNC(=O)c1c(O)c(Cl)cc(Cl)c1OC [S(-)-Raclopride]	91.8%	-3.17%
